These are yes or no findings as the source states them, for the method shown. Some results given as binding are weak or reduced against the parent protein; the word gives no strength.
Molecular target: T1, Rad55-Rad57 complex (S. cerevisiae) (UniProt P38953+P25301)
T1 sequence 1: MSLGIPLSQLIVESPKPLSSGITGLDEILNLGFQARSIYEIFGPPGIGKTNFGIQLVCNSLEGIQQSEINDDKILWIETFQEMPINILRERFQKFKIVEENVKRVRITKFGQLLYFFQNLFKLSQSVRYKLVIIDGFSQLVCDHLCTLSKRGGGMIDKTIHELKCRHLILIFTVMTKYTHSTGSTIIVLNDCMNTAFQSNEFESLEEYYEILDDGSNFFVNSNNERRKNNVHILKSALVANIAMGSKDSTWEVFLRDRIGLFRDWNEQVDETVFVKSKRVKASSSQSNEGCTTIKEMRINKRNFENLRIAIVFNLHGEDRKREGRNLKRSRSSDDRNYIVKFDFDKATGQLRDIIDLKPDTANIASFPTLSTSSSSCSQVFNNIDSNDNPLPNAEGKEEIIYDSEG
T1 sequence 2: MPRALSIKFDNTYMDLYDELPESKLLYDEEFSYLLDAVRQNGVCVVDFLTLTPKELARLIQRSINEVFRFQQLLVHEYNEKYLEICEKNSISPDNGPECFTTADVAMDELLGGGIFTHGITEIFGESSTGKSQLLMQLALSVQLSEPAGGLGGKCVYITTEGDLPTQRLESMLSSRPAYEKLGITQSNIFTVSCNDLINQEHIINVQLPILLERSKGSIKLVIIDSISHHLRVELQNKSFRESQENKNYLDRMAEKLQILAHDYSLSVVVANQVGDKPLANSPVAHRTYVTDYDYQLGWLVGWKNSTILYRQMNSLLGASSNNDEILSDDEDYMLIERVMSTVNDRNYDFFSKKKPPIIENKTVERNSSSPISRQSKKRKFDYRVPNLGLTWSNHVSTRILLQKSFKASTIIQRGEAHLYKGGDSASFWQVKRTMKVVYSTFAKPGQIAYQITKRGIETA
Assay: two-hybrid

Amino acid sequences for entries named in this document (tags omitted). A change or cut given only in a name is not applied to a line headed by its entry.
UniProt P25454: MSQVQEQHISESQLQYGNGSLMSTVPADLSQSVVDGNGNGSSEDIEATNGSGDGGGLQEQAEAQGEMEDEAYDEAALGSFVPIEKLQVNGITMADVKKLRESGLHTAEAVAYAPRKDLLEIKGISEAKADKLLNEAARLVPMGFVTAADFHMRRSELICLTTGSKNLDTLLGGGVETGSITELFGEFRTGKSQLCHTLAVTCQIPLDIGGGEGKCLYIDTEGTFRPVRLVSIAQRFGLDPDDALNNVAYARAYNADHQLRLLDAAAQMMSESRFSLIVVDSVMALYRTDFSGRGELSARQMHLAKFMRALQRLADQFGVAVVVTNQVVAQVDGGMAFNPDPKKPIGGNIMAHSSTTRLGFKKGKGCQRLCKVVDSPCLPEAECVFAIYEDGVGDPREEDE

| binding | Substance |
| --- | --- |
| binds | Rad51-E221K (two-hybrid fusion) (from UniProt P25454 1-400) |
| binds | Rad51-K214M (two-hybrid fusion, with E221K) (from UniProt P25454 1-400) |
